From patent publication US20120010195A1, “IMIDAZOLE DERIVATIVES” (SYNGENTA CROP PROTECTION, LLC, priority 2009, published 2012)
Some entries share one result that the patent states for a list of compounds.

Columns and labels:
Assay type in all cases: in vivo
Pyrenophora teres = experiment: Pyrenophora teres/Barley/Leaf Disk Preventative (Net Blotch); conditions: 200 ppm, barley leaf segments cv. Hasso, compared to untreated control leaf disks
[1] = tested on: Puccinia recondita f. sp. tritici; experiment: Puccinia recondita f. sp. tritici/Wheat/Leaf Disk Preventative (Brown Rust); conditions: 200 ppm, wheat leaf segments cv. Kanzler, compared to untreated control leaf disks
[2] = tested on: Blumeria graminis f. sp. hordei (Erysiphe graminis f. sp. hordei); experiment: Blumeria graminis f. sp. hordei/Barley/Leaf Disk Preventative (Powdery Mildew on Barley); conditions: 200 ppm, barley leaf segments cv. Hasso, compared to untreated control leaf disks
Alternaria solani = experiment: Alternaria solani/Tomato/Leaf Disk Preventative (Early Blight); conditions: 200 ppm, tomato leaf disks cv. Baby, compared to untreated control leaf disks

Measured: disease control

COc1cc(F)c(-n2c(Cl)nc(C)c2N2CCC(C)CC2)c(F)c1 [I.b.004, 1-[2-chloro-3-(2,6-difluoro-4-methoxy-phenyl)-5-methyl-3H-imidazol-4-yl]-4-methyl-piperidine]
at least 80%: Pyrenophora teres | [1] | [2]

Cc1nc(Cl)n(-c2c(F)cc(F)cc2F)c1N1CCC(C)CC1 [I.a.004, 1-[2-Chloro-5-methyl-3-(2,4,6-trifluoro-phenyl)-3H-imidazol-4-yl]-4-methyl-piperidine]
at least 80%: all assays above
